We go through one compound from patent US9598364B2, “Indolyl or indolinyl hydroxamate compounds” (Taipei Medical University, priority 2010, dated 2017).

In the assay the test system is Kasumi-1. The assay can be described thus: MTT cell viability assay, Kasumi-1. It counts as cell-based. To be noted: Kasumi-1 leukemia cells, 48 or 72 hr. From the text: Various concentrations for the test compound were examined.
Background: Tetrazolium dyes change colour on reduction, which living cells bring about.

By GI50 is commonly meant the concentration that inhibits growth by half. The compound `O=C(CCCCCCC(=O)Nc1ccccc1)NO` [SAHA, reference compound] showed a GI50 of 292 nM.
